# Values joined by “and” are separate entries in the source; they are usually repeats but may differ in a detail not shown here. Equal entries are not always repeated. Structures can show the parent of a compound that is named as a salt. ± gives the standard deviation of the averaged measurements. The list shows a part of the results. Single values of this set are uncertain.
# Test system: Salmonella enterica serovar Typhimurium ST313 D23580
# Experiment: normalized bacterial growth (OD600 20 h minus 0 h, interquartile-mean normalized) (fraction of plate interquartile mean); higher = more bacterial growth (less inhibition)
# Conditions: LPM (pH 5.8, low phosphate, low Mg2+), concentration: 10 µM, temperature: 37 °C
row,Structure (SMILES),normalized bacterial growth
1,COC(=O)[C@H](Cc1ccccc1)NC(=O)[C@@H](N)CC(=O)O,1.23
2,C[C@]12CC[C@@H]3c4ccc(O)cc4C[C@@H](CCCCCCCCC[S+]([O-])CCCC(F)(F)C(F)(F)F)[C@H]3[C@@H]1CC[C@@H]2O (stereo partly specified) [Fulvestrant],0.928
3,O=C(O)[C@@H]1[C@H]2C[C@H]3c4[nH]c5ccccc5c4CCN3C[C@@H]2CC[C@@H]1O [Yohimbinic acid monohydrate],0.853
4,COc1cc(CNC(=O)CCCC/C=C/C(C)C)ccc1O,1
5,COC(=O)c1c(OC)cc2c(c1C)Oc1c(Cl)c(O)c(Cl)c(C)c1C(=O)O2,1.07
6,CO/N=C(\C(=O)N[C@@H]1C(=O)N2C(C(=O)O)=C(COC(C)=O)CS[C@H]12)c1csc(N)n1,0.214
7,CO/N=C(\C(=O)N[C@@H]1C(=O)N2C(C(=O)O)=C(COC(C)=O)CS[C@H]12)c1csc(N)n1 [Cefotaxime sodium],0.484
8,C=C[C@](C)(O)CC[C@@H]1[C@@]2(C)CCCC(C)(C)[C@@H]2CC[C@@]1(C)O,0.79
9,CC(C)[C@H](N)C(=O)OCCOCn1cnc2c(=O)nc(N)[nH]c21,1.06
10,NCCC(=O)N[C@@H](Cc1c[nH]cn1)C(=O)O,0.957
11,Cn1cc(C(F)(F)F)nc1-c1ccc(OCC(O)CNCCOc2ccc(O)c(C(N)=O)c2)cc1 (stereo unspecified),1.27
12,CN(C(=O)CN(CCO)CC(=O)N(C)C(C)(C)Cc1ccccc1)C(C)(C)Cc1ccccc1,0.0767
13,COC(=O)N/N=C/c1c[n+]([O-])c2ccccc2[n+]1[O-],1.29
14,CC1(C)O[C@@H]2C[C@H]3[C@@H]4C[C@H](F)C5=CC(=O)C=C[C@]5(C)[C@@]4(F)[C@@H](O)C[C@]3(C)[C@]2(C(=O)CO)O1,1.13
15,CC(C)=CCc1c2c(c3occ(-c4ccc(O)c(O)c4)c(=O)c3c1O)C=CC(C)(C)O2,1.28
16,COc1cc(NS(=O)(=O)c2ccc(N)cc2)ncn1,0.934
17,Cc1cc(C)nc(NS(=O)(=O)c2ccc(N)cc2)n1 [Sulfamethazine sodium salt],1.04
18,Cc1cc(C)nc(NS(=O)(=O)c2ccc(N)cc2)n1,1.13
19,"Cc1ccc(OCC(O)C(C)NC(C)C)c2c1CCC2 (stereo unspecified) [""ICI 118,551 hydrochloride""]",0.946
20,NC(C(=O)O)C(O)C(=O)O (racemic) [DL-threo-beta-hydroxyaspartic acid],1.02
21,O=C(O)C1=CC(=C(c2ccc(O)c(C(=O)O)c2)c2ccc(O)c(C(=O)O)c2)C=CC1=O [Aurintricarboxylic acid],1.19
22,C[C@@H]1C/C=C/C=C/C=C/C=C/[C@H](O[C@@H]2O[C@H](C)[C@@H](O)[C@H](N)[C@@H]2O)C[C@@H]2O[C@](O)(C[C@@H](O)C[C@H]3O[C@@H]3/C=C/C(=O)O1)C[C@H](O)[C@H]2C(=O)O,0.93 and 0.816
23,CC(C(O)c1ccc(O)cc1)N1CCC(Cc2ccccc2)CC1 (stereo unspecified) [Ifenprodil tartrate],1.04 ± 0.07
24,O=c1ccn([C@@H]2O[C@H](COP(=O)(O)OP(=O)(O)O)[C@@H](O)[C@H]2O)c(=O)[nH]1 [Uridine 5'-diphosphate sodium],1.06
25,COc1ccc(Cl)cc1C(=O)NCCc1ccc(S(=O)(=O)NC(=O)NC2CCCCC2)cc1 [Glybenclamide],0.923
26,CC(C)=CCC1=C(O)C(=O)c2ccccc2C1=O,0.795

# Random excerpt: two entries already listed
row,Structure (SMILES),normalized bacterial growth
1,COC(=O)[C@H](Cc1ccccc1)NC(=O)[C@@H](N)CC(=O)O,1.23
2,C[C@]12CC[C@@H]3c4ccc(O)cc4C[C@@H](CCCCCCCCC[S+]([O-])CCCC(F)(F)C(F)(F)F)[C@H]3[C@@H]1CC[C@@H]2O (stereo partly specified) [Fulvestrant],0.928

# Additional entries follow:

row,Structure (SMILES),normalized bacterial growth
1,CC#C[C@]1(O)CC[C@H]2[C@@H]3CCC4=CC(=O)CCC4=C3[C@@H](c3ccc(N(C)C)cc3)C[C@@]21C [Mifepristone],1.11
2,CCCOc1ccccc1-c1nc2[nH]nnc2c(=O)[nH]1 [Zaprinast],1.07 ± 0.015
3,CCCCCCNC(=O)n1cc(F)c(=O)[nH]c1=O,0.0478
4,Cc1cc(O)c2c(c1O)C(=O)c1c(O)cc(C)c(O)c1C2=O,1.25
5,COc1cc(OC)c2ccc(=O)oc2c1,0.997
6,O=C(CCBr)N1CCN(C(=O)CCBr)CC1,1.02
7,CCCCC1C(=O)N(c2ccccc2)N(c2ccc(O)cc2)C1=O (stereo unspecified),1.13
8,N[C@H]1CONC1=O [L-Cycloserine],1.05
9,N[C@H]1CONC1=O,0.896
10,O=C(O)c1cc(=O)c(O)c2c(O)c(O)c(O)cc2c1,0.304
11,O=c1c(O)c(-c2ccc(O)cc2)oc2cc(O)cc(O)c12,1.01
12,CC(=O)Nc1ccc(OC(=O)c2ccccc2O)cc1,1.01
13,COc1cc2nc(N3CCN(C(=O)C4COc5ccccc5O4)CC3)nc(N)c2cc1OC (stereo unspecified) [Doxazosin mesylate],0.646
14,COC(=O)C[C@H]1C2(C)CC34OC5(C)O[C@@]6([C@H](OC(C)=O)C(OC(C)=O)[C@]7(C)C(/C(=C(/O)C(C)C)C(=O)O[C@H]7c7ccoc7)[C@@]6(O5)[C@H](OC(C)=O)[C@@]3(O)C2OC(=O)C(C)C)[C@]14C (stereo partly specified),0.936
15,"O=c1[nH]ccc2c(O)cccc12 [""1,5-Isoquinolinediol""]",1.19
16,CC(C)(CO)[C@@H](O)C(=O)NCCC(=O)O [PANTOTHENIC ACID(d) Na salt],1.15
17,CC(C)(CO)[C@@H](O)C(=O)NCCC(=O)O [Pantothenic acid calcium salt monohydrate],1.16
18,Cc1cc(C(C)(C)C)cc(C)c1CC1=NCCN1 [Xylometazoline hydrochloride],1.03
19,CCN(CCCCOC(=O)c1ccc(OC)c(OC)c1)C(C)Cc1ccc(OC)cc1 (stereo unspecified),0.54
20,O=C(c1cc(O)c(O)c([N+](=O)[O-])c1)c1ccccc1F,1.15
21,CC(=O)O[C@@H]1CC(=O)[C@@]2(C)C(CC(=O)[C@]3(C)C2CC[C@@]2(C)[C@H](c4ccoc4)OC(=O)C4OC423)C1(C)C (stereo partly specified),0.805
22,CCOC(=O)c1c(C)cc(OC)cc1O,0.798
23,CC(=O)O[C@H]1CC(=O)OC(C)(C)[C@@H]2CC(=O)[C@]3(C)[C@H](CC[C@@]4(C)[C@@H](c5ccoc5)OC(=O)[C@H]5O[C@]543)[C@@]12C,1.01
24,CCN(CC)CCOCCOC(=O)C1(c2ccccc2)CCCC1 [Carbetapentane citrate],0.842
25,NC[C@H]1O[C@H](O[C@H]2[C@H](O)[C@@H](O[C@H]3O[C@H](CO)[C@@H](O)[C@H](N)[C@H]3O)[C@H](N)C[C@@H]2N)[C@H](N)C[C@@H]1O,0.804
